Source: article PMC2999533
These are yes or no findings as the source states them, for the method shown. Binding seen in cells or lysates may run through a third protein. Some entries that bind do so weakly or less than the wild type.

The chains behind the UniProt entries cited, without tags or fusion partners. Where a name states a change or a piece, a line headed by the entry shows the natural chain unless it says otherwise. A line that says so, or that is headed by a name, gives the form on record, which may keep a tag or linker. Residues count along the entry.
UniProt O00571: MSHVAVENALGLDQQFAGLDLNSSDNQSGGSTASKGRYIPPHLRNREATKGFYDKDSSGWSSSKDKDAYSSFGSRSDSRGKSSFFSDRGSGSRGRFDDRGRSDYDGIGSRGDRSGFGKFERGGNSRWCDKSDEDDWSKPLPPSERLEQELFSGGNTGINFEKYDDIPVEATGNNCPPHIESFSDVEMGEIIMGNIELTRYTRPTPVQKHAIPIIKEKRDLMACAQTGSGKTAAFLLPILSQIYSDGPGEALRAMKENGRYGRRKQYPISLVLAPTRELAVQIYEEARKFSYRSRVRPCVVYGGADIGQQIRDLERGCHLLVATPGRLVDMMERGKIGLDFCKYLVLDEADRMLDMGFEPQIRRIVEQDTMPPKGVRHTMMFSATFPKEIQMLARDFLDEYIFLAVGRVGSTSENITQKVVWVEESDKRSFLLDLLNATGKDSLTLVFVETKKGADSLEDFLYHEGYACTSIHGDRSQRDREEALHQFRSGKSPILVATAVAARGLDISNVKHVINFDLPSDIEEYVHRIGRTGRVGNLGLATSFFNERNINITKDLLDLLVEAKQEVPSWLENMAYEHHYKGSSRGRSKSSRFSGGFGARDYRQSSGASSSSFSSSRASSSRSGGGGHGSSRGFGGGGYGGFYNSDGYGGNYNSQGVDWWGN
DDX3 2-3c, C-terminal region of DDX3 (199-662 aa): residues 199-662 of O00571
HA-tagged DDX3 partial fragment, DDX3-HA (225-662): residues 225-662 of O00571
UniProt Q7Z434: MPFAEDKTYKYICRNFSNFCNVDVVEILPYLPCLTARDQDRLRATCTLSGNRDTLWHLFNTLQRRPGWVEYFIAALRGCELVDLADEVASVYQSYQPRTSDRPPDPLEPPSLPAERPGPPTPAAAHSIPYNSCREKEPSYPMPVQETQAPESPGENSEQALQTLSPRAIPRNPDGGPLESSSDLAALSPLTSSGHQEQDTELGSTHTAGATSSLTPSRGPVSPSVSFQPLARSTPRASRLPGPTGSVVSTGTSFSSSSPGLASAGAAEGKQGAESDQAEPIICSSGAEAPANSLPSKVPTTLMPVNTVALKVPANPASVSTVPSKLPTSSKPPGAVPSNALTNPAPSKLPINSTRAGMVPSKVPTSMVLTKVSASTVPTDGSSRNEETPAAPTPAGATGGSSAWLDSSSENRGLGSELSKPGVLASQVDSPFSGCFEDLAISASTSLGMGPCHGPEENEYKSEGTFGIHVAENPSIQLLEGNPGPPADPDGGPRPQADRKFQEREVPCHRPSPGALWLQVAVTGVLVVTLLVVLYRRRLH

What was measured:
Test in all cases: co-IP; HEK293FT cells co-transfected (400 ng of each plasmid) with HA-DDX3 (whole or fragment) and FLAG-IPS-1, with or without HCV core, for 24 h; lysis buffer 20 mM Tris-HCl pH 7.5, 125 mM NaCl, 1 mM EDTA, 10% glycerol, 1% NP-40; IP with anti-HA (DDX3), blot with anti-FLAG (IPS-1)
[1] = target: DDX3 2-3c, C-terminal region of DDX3 (199-662 aa) (human) (UniProt O00571)
[2] = target: HA-tagged DDX3 partial fragment, DDX3-HA (225-662) (human) (UniProt O00571)
[3] = target: full length DDX3 with C-terminal HA tag (pEF-BOS DDX3-HA) (human) (UniProt O00571)

Measured: binding

FLAG-tagged IPS-1, full length (from UniProt Q7Z434 1-540)
binds: all assays above
